Data published in paper PMC9818519.
The exact form of at least one protein or probe is not confirmed. For some of these results: A weaker result is weaker than the reference pair of the same experiment.

How the values were obtained:
[1] = test system: His-HAT1 (Homo sapiens); assay: ELONA; conditions: recombinant protein, protein details: 6xHis (pQE30), single-stranded DNA
[2] = test system: His-HAT1, denatured (apta-Western) (Homo sapiens); assay: apta-Western blot; conditions: denatured HAT1, 50 nM aptamer; recombinant protein; protein details: 6xHis (pQE30); label: biotin (ELONA Fig 4), digoxigenin (Fig 2); single-stranded DNA
[3] = digoxigenin label, 40 nM, label: digoxigenin, letters put together from the description
[4] = digoxigenin label, 40 nM, label: biotin (ELONA Fig 4), digoxigenin (Fig 2)

Sequence | binding result [1, 3] | binding result [2] | binding result [1, 4] | binding result ([1]; 40 nM aptamer, 1 mM MgCl2, label: biotin)
GCGGATGAAGACTGGTGTAGACAATGGATATTCCCGCCACCTCCTCCCCCGCCCCCCCGCCCTAAATACGAGCAAC [apHAT610F (610F)] | binds | – | – | –
GCGGATGAAGACTGGTGTCGAGGGGGGGGCGGGCGGGTGGGTTGGCTCTTCATGCCTGTGCCCTAAATACGAGCAAC [apHAT63 (63F)] | – | binds | binds | –
GGGCGGGGGGGCGGGGGAGGAGGTGGCGGGAATATCCATTGTCTACACCAGTCTTCATCCGC [apHAT610T] | – | – | – | binds more weakly
GTTGCTCGTATTTAGGGCACAGGCATGAAGAGCCAACCCACCCGCCCGCCCCCCCCTCGACACCAGTCTTCATCCGC [apHAT63R (63R)] | binds | – | – | –
GTTGCTCGTATTTAGGGCGGGGGGGCGGGGGAGGAGGTGGCGGGAATATCCATTGTCTACACCAGTCTTCATCCGC [apHAT610 (610R)] | – | binds | binds | –
